The values below come from article PMC10063565.

This assay has as its target T1, Nicotinamide Nucleotide Transhydrogenase (NNT) (mouse (endogenous in kidney)) (UniProt Q61941).
T1 sequence: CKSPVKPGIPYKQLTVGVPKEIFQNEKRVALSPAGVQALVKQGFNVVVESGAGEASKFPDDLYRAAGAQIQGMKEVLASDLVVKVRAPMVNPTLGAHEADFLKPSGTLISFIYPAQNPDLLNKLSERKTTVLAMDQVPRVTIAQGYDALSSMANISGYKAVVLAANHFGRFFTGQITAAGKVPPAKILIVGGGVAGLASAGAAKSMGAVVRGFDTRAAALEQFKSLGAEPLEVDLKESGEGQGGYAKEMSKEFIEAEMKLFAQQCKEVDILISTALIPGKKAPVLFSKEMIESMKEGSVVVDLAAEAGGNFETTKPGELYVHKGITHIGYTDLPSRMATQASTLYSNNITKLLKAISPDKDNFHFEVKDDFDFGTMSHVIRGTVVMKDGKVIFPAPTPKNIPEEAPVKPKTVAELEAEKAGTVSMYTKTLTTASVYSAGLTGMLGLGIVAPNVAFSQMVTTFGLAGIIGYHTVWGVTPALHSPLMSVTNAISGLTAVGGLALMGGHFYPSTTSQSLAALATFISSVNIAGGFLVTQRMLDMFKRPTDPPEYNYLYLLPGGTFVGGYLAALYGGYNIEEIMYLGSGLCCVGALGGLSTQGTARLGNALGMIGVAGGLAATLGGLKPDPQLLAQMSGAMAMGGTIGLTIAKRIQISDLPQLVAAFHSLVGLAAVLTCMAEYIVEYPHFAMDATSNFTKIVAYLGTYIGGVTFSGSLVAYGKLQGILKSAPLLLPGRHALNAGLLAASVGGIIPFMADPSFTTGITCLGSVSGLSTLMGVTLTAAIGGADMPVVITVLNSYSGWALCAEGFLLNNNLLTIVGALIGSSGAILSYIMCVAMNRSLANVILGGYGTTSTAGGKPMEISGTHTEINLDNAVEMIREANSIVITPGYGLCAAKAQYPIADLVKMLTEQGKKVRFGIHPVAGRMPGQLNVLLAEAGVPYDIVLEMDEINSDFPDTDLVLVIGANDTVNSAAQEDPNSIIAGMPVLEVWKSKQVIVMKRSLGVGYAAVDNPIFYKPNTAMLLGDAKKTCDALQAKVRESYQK
As to the kind of experiment: co-IP; kidney lysates of Pkd1F/H-BAC vs WT mice, agarose-conjugated anti-NNT (B3), blotted with HRP-conjugated anti-HA.

Results are given in words; binding and its absence hold for the method and conditions named. Binding seen in cells or lysates may run through a third protein. A result given as binding can be weak or reduced; the word gives no strength.

Consider “CTF derived from full-length 3FLAG-PC1-3HA (domain or fragment)”, for which the binding result is listed as “binds”.
